Assay results as given in doi:10.1101/2022.12.14.520480.

By UniProt entry, the sequences of proteins in these tests, tags left out. Residues count along the entry.
UniProt Q00610: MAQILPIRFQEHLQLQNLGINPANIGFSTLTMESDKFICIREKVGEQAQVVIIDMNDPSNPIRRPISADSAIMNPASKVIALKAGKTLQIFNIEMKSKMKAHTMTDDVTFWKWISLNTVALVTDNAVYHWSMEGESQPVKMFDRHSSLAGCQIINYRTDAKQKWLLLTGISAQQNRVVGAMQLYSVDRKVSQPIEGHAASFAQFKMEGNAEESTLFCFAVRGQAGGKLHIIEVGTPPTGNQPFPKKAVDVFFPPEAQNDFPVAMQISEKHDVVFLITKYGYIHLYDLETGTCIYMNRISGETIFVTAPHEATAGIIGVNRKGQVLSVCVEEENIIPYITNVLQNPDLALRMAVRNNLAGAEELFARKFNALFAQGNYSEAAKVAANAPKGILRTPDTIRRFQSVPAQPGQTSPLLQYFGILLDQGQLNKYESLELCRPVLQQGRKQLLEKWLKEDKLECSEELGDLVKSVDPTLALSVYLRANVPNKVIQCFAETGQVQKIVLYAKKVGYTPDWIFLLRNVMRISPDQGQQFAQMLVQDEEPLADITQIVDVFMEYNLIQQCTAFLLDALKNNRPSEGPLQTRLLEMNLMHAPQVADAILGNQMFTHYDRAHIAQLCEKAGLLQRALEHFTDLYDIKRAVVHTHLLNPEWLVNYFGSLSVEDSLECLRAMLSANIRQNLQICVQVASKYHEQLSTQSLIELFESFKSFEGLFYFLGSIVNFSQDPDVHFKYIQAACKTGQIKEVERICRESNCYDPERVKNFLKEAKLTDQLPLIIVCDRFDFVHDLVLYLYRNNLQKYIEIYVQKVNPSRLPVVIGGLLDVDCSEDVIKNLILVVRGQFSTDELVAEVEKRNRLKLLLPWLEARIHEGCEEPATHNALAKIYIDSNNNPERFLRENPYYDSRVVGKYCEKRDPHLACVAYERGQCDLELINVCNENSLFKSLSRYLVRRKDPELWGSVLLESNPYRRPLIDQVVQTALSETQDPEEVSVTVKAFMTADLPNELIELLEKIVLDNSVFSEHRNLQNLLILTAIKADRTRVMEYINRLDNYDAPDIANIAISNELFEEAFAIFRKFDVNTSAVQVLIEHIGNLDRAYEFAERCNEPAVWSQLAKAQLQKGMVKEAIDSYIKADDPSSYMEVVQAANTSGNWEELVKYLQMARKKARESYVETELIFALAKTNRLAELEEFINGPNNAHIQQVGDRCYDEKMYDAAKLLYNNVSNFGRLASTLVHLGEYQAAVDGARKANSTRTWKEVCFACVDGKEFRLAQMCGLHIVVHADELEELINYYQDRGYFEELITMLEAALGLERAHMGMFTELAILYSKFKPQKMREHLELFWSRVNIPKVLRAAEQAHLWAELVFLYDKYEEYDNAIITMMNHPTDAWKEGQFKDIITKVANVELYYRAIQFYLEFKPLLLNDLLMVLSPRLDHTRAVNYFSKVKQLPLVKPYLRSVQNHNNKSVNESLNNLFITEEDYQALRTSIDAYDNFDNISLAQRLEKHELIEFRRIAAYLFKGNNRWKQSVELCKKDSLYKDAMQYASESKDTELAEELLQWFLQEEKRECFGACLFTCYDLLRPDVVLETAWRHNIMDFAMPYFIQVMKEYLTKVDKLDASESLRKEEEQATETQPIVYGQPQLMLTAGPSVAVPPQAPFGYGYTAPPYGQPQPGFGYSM
UniProt Q4KWH8: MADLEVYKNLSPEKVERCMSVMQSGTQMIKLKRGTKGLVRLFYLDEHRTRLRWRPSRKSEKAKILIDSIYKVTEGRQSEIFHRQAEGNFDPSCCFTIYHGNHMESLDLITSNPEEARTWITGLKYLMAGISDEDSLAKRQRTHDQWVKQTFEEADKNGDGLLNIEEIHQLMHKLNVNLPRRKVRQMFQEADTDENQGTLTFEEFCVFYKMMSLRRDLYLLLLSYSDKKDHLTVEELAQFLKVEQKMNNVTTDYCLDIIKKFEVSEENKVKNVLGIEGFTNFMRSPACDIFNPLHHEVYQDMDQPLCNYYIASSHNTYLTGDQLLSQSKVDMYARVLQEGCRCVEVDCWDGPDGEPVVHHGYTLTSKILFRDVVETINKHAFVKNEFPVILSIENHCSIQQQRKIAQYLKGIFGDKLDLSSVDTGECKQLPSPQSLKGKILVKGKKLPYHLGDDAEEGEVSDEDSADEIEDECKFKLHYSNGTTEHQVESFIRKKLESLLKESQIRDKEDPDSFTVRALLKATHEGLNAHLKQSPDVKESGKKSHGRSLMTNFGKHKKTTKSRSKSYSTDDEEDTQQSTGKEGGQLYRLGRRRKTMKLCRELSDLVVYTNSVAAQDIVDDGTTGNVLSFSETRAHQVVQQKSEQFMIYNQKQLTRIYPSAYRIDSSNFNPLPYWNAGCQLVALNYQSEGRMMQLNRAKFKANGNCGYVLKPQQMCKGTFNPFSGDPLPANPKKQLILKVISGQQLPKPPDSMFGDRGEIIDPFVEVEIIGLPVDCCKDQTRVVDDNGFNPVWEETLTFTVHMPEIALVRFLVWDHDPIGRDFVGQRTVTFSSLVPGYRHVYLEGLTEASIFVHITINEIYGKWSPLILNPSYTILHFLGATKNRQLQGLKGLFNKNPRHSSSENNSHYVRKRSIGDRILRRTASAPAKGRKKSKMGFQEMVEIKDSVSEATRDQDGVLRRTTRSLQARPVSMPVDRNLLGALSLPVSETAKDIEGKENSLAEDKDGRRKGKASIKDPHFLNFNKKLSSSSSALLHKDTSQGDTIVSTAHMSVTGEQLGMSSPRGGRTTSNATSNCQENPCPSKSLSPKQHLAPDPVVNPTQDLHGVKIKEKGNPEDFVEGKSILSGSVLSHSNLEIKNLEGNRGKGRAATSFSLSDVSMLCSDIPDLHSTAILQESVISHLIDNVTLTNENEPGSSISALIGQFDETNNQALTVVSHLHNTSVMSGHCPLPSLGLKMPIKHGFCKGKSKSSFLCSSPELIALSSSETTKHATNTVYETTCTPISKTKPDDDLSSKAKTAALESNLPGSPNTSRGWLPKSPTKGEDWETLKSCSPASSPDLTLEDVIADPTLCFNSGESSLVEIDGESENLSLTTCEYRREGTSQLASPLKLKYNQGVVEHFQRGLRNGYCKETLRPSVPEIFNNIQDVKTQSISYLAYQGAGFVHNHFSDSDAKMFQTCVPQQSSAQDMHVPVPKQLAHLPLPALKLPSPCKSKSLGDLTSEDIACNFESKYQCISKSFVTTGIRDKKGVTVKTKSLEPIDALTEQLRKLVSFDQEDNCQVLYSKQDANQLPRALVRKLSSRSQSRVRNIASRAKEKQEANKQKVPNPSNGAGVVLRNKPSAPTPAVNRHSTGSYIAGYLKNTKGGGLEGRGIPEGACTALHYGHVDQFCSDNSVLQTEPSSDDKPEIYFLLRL
UniProt Q9P0T7, residues 21-183: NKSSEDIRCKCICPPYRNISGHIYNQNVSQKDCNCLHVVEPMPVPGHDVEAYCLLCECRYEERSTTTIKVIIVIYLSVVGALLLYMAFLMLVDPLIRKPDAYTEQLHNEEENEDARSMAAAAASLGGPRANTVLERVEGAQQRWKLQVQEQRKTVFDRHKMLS
UniProt Q8TDY2: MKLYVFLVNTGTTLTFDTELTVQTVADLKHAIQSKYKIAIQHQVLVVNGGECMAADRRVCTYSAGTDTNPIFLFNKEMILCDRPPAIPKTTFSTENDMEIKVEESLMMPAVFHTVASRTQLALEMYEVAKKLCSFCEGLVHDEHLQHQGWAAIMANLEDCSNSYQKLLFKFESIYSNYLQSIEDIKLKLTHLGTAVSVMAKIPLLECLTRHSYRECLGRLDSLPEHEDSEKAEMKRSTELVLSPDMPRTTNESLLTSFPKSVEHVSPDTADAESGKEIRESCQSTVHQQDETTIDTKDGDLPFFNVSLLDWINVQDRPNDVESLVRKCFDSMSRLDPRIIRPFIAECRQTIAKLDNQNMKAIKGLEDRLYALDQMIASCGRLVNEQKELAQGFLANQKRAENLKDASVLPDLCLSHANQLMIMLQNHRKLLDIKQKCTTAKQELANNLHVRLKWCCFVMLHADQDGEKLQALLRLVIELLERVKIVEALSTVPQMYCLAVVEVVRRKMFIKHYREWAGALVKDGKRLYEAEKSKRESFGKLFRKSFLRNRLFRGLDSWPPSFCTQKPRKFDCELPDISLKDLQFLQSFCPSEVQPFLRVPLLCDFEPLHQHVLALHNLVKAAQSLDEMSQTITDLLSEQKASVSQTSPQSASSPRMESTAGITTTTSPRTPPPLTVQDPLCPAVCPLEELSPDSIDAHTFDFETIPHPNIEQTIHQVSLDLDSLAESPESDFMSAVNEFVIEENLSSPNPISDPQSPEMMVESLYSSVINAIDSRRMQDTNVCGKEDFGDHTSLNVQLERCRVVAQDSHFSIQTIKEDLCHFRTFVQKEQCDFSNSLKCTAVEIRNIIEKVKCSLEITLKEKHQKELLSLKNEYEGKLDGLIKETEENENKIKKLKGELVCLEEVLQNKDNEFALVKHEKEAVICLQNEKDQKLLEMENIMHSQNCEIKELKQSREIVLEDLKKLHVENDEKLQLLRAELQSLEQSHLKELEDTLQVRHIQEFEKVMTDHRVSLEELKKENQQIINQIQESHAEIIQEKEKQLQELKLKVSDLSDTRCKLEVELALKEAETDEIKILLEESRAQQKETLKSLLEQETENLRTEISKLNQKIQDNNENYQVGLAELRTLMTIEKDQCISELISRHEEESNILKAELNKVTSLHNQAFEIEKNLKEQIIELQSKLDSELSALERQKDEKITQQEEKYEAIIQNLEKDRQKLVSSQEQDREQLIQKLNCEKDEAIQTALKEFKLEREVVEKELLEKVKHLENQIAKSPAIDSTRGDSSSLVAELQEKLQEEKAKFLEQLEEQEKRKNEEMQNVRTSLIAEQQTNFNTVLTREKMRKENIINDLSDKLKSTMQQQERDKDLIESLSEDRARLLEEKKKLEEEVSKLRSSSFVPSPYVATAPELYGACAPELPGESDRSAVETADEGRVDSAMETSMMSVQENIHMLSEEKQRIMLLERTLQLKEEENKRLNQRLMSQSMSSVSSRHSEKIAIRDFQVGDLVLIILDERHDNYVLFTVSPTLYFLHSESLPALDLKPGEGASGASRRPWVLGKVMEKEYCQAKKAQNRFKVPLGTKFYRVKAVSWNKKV
UniProt P21281: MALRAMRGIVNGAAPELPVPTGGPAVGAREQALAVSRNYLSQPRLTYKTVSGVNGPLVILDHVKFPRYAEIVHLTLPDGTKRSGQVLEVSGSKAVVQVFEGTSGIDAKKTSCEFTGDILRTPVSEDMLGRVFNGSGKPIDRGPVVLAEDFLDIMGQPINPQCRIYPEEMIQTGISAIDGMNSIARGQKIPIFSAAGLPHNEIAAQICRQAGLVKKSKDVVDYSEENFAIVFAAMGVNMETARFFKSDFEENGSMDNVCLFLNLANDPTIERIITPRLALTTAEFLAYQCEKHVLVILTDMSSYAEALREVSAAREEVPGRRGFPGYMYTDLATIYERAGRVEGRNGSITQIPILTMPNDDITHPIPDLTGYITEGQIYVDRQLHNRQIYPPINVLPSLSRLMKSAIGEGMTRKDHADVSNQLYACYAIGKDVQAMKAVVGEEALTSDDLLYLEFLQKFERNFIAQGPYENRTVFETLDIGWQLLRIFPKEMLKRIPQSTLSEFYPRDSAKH
UniProt P33176: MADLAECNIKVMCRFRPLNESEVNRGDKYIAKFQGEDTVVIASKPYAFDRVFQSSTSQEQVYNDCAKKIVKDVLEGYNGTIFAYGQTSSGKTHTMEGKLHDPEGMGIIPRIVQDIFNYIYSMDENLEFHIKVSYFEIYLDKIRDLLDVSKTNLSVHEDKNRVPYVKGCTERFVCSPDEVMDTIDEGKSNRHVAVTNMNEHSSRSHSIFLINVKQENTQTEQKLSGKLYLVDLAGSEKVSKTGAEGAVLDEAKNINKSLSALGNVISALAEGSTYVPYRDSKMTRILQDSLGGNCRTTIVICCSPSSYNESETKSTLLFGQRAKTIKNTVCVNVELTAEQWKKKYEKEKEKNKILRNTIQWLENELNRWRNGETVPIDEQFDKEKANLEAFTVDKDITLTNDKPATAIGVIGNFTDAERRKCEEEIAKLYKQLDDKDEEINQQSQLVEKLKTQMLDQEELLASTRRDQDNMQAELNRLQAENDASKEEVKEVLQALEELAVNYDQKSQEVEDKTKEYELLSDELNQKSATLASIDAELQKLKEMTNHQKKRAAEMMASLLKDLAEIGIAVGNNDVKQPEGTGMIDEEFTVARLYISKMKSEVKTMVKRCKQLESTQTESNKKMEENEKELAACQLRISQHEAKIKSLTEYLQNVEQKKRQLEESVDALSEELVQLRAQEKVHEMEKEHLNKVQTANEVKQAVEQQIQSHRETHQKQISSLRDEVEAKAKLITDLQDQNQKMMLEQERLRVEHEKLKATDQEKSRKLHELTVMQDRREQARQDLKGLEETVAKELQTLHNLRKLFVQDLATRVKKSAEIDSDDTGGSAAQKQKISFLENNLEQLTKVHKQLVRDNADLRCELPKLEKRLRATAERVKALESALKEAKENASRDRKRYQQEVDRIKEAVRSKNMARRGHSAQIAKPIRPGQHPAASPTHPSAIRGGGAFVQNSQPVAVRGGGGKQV

Assays:
TBC1D15-GFP wild type = target: T1, TBC1D15-GFP wild type (UniProt Q8TC07); experiment: affinity purification with mass spectrometry
T1 sequence: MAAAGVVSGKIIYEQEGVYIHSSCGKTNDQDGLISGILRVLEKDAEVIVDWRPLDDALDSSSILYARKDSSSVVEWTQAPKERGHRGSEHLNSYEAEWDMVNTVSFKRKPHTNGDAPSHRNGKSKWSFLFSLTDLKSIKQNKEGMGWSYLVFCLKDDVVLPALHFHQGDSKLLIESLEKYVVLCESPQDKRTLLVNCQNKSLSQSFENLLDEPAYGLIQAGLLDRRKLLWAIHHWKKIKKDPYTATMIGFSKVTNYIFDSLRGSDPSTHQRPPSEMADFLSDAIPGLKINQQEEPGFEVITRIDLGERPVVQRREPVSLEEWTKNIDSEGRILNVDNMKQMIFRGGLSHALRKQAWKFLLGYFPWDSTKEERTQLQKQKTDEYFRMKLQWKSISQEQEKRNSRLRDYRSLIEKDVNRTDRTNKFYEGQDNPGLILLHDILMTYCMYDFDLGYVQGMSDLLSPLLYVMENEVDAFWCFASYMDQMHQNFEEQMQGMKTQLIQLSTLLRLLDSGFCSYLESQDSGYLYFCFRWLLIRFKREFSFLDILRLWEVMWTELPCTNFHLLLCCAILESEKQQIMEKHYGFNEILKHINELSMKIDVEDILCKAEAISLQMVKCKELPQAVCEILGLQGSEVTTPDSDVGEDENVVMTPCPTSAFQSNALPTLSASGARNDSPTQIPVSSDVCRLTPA

APEX2-TBC1D15 [1] = target: T2, APEX2-TBC1D15 (UniProt Q8TC07); experiment: proximity labelling
T2 sequence: T1 sequence

APEX2-TBC1D15 [2] = target: T2, APEX2-TBC1D15; experiment: proximity labelling; remark: listed apart in the source
LAMP1-APEX2 = target: T3, LAMP1-APEX2 (UniProt P11279); experiment: proximity labelling
T3 sequence: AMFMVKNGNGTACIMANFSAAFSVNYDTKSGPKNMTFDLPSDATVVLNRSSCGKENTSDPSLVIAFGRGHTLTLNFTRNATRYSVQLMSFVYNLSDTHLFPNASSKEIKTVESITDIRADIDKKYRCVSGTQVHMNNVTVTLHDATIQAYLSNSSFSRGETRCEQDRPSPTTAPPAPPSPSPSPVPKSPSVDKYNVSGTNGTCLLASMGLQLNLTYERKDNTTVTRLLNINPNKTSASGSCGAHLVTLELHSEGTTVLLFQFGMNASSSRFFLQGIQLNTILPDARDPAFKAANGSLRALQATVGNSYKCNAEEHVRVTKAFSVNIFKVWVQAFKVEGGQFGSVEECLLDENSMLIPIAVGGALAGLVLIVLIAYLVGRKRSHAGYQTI

| Substance | binding (TBC1D15-GFP wild type) | binding (APEX2-TBC1D15 [1]) | binding (APEX2-TBC1D15 [2]) | binding (LAMP1-APEX2) |
| --- | --- | --- | --- | --- |
| Clathrin heavy chain CLTC (endogenous) (from UniProt Q00610 1-1675) | binds | binds | binds |  |
| KIF1A (from UniProt Q12756 1-1690) |  |  | binds |  |
| VPS13C (from UniProt Q709C8 1-3753) |  |  |  | binds |
| PLCH1 (from UniProt Q4KWH8 1-1693) |  |  | binds |  |
| TMEM9 (from UniProt Q9P0T7 21-183) |  |  | binds |  |
| ATG3 (from UniProt Q9NT62 1-314) |  |  | binds | binds |
| RB1CC1 (from UniProt Q8TDY2 1-1594) |  |  | binds | binds |
| PIP5K1A (from UniProt Q99755 1-562) |  |  |  | binds |
| ATP6V1B2 (endogenous) (from UniProt P21281 1-511) |  |  | binds |  |
| KIF5B (endogenous) (from UniProt P33176 1-963) | binds | binds | binds |  |
| Rab7 (human (endogenous in HeLa)) |  |  |  | binds |

Where two headings read alike, the source gives them in different places. These are yes or no findings as the source states them, for the method shown. Binding seen in cells or lysates may run through a third protein. A yes stands for co-enrichment or nearness to the bait. Other partners may have been found. For some assays here: Sequences can lack the tags named with a protein.
